According to article doi:10.1101/828426:
These are yes or no findings as the source states them, for the method shown. Binding seen in cells or lysates may run through a third protein. A yes stands for co-enrichment or nearness to the bait. Other partners may have been found. For some of these results: No binding means not detected with the bait. Tags and fused reporters may be left off the sequences shown.

Amino acid sequences for entries named in this document (tags omitted).
UniProt Q7TPH6: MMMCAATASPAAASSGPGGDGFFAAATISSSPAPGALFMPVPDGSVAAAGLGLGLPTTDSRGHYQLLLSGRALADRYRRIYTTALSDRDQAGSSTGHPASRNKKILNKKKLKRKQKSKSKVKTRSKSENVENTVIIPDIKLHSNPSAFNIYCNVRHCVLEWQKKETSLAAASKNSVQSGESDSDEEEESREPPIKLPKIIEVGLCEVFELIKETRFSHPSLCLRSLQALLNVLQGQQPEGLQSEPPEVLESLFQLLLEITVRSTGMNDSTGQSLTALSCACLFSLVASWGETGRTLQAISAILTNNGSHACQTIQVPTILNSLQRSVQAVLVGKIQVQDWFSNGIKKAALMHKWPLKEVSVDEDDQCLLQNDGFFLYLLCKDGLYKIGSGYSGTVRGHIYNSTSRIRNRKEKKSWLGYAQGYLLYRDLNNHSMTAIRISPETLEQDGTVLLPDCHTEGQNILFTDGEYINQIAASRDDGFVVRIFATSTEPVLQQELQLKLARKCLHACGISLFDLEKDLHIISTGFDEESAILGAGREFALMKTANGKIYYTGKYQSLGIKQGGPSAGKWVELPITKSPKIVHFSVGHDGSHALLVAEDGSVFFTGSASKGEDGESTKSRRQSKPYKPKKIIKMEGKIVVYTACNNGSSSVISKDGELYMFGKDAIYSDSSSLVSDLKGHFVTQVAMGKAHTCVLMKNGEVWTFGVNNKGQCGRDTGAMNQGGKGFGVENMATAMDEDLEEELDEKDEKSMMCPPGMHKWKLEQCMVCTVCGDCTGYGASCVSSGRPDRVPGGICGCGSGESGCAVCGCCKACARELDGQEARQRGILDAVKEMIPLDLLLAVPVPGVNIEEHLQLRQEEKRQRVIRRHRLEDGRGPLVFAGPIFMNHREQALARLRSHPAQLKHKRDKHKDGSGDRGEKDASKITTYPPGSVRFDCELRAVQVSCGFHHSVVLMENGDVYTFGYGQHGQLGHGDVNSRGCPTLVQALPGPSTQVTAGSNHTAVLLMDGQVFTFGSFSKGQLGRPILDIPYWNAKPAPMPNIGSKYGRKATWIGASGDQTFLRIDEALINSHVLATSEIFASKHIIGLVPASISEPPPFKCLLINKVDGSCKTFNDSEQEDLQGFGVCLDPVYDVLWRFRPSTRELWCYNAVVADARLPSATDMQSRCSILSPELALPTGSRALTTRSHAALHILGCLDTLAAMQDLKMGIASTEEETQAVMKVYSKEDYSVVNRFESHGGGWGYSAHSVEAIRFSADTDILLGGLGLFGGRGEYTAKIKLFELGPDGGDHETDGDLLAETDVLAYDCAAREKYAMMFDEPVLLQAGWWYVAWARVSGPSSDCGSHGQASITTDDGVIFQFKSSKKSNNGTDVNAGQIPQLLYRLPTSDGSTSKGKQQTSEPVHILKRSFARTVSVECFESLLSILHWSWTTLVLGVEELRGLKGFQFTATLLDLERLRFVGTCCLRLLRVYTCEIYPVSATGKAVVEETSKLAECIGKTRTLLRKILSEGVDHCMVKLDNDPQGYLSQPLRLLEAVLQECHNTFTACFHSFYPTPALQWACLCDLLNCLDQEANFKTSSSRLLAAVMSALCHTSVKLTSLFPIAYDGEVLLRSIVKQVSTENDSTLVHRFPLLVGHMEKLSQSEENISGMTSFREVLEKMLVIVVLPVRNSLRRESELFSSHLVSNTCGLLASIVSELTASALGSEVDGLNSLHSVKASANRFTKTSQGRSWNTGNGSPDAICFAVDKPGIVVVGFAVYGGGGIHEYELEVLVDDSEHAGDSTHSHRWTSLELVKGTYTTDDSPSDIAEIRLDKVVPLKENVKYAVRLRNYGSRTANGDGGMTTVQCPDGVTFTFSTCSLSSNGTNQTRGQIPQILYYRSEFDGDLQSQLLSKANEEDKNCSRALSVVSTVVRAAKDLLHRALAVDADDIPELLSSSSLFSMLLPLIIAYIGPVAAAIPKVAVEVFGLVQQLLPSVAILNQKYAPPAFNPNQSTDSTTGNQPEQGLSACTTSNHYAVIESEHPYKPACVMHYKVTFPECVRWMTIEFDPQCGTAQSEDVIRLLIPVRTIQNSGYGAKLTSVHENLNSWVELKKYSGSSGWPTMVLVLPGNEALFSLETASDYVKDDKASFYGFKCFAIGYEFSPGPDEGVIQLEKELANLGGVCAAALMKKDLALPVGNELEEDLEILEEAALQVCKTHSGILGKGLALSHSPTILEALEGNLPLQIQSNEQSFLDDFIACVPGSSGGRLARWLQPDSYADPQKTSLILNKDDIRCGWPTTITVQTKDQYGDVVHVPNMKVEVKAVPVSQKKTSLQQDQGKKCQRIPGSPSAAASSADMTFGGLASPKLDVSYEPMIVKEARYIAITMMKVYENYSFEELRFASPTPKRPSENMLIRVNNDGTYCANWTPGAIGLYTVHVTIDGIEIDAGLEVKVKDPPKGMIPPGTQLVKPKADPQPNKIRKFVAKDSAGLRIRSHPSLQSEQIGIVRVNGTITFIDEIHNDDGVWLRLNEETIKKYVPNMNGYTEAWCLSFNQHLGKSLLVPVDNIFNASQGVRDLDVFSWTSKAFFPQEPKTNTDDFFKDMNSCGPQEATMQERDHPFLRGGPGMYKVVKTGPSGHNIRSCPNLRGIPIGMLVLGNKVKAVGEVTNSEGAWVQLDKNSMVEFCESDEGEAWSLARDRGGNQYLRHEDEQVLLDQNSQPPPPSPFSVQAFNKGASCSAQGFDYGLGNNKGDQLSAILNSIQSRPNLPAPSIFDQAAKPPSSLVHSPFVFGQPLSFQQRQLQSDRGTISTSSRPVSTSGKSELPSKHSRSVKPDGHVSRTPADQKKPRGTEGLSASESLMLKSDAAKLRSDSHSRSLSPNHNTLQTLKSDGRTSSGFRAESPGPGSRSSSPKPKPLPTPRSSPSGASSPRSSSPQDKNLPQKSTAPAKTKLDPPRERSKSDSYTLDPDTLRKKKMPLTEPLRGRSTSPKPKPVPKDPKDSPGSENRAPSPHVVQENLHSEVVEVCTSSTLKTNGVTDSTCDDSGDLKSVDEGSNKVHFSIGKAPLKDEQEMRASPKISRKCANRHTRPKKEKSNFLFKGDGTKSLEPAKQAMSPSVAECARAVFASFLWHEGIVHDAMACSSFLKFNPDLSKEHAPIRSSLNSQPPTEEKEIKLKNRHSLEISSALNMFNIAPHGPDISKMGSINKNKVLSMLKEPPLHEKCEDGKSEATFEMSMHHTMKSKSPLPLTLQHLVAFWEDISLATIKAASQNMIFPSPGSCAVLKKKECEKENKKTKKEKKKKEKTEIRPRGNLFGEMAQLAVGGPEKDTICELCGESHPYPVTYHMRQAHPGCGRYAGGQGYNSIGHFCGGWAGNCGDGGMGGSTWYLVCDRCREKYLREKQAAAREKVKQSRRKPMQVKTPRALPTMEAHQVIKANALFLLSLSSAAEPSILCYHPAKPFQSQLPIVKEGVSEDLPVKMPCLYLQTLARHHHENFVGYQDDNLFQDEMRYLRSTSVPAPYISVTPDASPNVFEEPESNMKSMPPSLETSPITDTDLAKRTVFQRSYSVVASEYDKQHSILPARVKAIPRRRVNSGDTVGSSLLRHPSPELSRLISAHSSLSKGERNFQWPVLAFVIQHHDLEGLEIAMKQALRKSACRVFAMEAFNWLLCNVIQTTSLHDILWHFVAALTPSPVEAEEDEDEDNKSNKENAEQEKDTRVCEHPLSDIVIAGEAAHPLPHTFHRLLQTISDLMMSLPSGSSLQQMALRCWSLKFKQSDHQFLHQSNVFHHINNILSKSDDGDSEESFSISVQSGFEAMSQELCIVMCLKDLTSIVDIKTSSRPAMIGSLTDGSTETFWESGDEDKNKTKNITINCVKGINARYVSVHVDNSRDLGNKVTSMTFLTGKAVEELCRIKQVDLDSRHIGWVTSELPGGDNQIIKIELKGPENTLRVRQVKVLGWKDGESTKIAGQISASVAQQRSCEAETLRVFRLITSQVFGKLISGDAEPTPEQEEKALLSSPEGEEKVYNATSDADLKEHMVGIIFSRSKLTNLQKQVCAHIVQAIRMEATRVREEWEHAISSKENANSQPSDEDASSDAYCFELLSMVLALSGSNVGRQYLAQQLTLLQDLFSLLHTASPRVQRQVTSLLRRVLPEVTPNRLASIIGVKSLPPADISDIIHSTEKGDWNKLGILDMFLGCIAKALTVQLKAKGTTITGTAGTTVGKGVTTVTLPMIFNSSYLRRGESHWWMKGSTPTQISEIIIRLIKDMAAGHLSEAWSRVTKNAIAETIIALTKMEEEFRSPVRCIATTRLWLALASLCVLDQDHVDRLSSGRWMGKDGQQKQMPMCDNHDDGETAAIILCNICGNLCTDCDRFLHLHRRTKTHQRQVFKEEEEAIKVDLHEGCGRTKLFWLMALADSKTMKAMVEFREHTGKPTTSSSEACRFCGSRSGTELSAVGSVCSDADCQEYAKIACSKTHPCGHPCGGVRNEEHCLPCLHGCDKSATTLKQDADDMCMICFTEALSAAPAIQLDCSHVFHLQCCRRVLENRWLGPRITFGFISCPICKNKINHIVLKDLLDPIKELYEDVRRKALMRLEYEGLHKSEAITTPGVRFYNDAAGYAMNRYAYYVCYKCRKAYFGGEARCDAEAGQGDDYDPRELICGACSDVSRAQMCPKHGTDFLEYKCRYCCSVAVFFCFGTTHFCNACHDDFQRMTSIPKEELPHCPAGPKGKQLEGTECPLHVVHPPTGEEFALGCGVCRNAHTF

T1: ECad-Fc (murine) (UniProt P09803)
T1 sequence: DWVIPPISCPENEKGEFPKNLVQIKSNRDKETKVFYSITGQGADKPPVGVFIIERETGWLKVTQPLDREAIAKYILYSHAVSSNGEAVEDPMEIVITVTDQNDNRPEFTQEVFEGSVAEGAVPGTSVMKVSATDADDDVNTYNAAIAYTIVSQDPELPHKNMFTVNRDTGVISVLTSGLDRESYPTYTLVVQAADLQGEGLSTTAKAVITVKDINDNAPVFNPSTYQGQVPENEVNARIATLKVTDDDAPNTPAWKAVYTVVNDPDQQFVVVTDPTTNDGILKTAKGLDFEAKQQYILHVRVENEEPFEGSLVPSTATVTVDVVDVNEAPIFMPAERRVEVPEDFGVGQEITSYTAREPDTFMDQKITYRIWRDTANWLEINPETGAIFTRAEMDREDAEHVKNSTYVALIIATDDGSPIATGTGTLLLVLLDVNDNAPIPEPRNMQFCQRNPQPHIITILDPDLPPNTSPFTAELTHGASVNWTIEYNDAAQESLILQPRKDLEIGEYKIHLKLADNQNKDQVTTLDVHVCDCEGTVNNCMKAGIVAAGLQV

T2: NCad^W161A-Fc (murine) (UniProt P15116)
T2 sequence: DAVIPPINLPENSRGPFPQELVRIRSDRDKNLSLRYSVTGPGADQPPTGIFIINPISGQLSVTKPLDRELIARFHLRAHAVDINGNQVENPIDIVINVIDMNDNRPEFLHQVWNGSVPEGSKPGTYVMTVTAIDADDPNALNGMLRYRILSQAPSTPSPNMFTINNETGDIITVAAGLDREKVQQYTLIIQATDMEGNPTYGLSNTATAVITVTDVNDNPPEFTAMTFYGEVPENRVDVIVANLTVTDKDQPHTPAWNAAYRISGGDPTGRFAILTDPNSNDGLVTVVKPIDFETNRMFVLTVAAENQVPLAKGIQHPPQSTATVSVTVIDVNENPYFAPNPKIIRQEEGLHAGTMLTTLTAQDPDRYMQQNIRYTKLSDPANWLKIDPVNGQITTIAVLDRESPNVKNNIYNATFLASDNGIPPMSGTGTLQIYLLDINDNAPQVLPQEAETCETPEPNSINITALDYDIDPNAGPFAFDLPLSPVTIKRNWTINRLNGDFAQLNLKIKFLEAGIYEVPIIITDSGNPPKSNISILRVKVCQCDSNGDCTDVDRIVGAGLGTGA


Columns and labels:
ECad-Fc (murine) = biological target: T1, ECad-Fc (murine); experiment: affinity purification with mass spectrometry
NCad^W161A-Fc (murine) = biological target: T2, NCad^W161A-Fc (murine); experiment: affinity purification with mass spectrometry

binding (ECad-Fc (murine)) | binding (NCad^W161A-Fc (murine)) | Molecule
no binding | binds | MycBP2 (mouse embryonic brain) (from UniProt Q7TPH6 1-4749)
no binding | binds | Fbxo45 (mouse embryonic brain) (protein, UniProt Q8K3B1 1-286) MAAPGPGAGAASGGASGGGAGAGGGASAGSGSSGVGGRLPSRVLELVFSYLELSELRSCALVCKHWYRCLHGDENSEVWRSLCARSLAEEALRTDILCNLPSYKAKVRAFQHAFSTNDCSRNVYIKKNGFTLHRNPIAQSTDGARTKIGFSEGRHAWEVWWEGPLGTVAVIGIATKRAPMQCQGYVALLGSDDQSWGWNLVDNNLLHNGEVNGSFPQCNNAPKYQIGERIRVILDMEDKTLAFERGYEFLGVAFRGLPKACLYPAVSAVYGNTEVTLVYLGKPLDG
